Experimental data from publication PMC12483278, “The viral BCL2 protein BHRF1 of Epstein–Barr virus promotes AIM2 inflammasome activation to facilitate lytic replication” (PLOS Pathogens, 2025).
These are yes or no findings as the source states them, for the method shown. In cells and extracts the contact can be indirect. Binding calls can cover weak binding; strength is not graded here. Where a sequence is shown, tags or fusion partners need not be part of it.

Biological target: T1, GST-AIM2 full-length (UniProt O14862)
T1 sequence: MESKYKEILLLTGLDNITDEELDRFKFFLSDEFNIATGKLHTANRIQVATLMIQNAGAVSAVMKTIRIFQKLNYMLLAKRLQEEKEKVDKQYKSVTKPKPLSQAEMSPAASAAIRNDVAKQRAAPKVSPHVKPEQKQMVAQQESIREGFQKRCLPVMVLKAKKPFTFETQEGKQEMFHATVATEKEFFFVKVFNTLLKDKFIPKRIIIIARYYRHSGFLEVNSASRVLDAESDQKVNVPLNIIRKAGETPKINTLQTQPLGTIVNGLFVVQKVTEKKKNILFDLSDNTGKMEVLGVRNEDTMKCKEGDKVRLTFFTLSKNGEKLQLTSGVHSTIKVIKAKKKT
Experiment: co-IP

With “GFP-BHRF1 with the N-terminal domain deleted (Epstein–Barr virus) (domain or fragment)” the binding was “binds”.
